Measured values from PMC11802874, “The hypolipidemic effect of MI-883, the combined CAR agonist/ PXR antagonist, in diet-induced hypercholesterolemia model” (Nature Communications, 2025).
No constants are given. Whether binding was seen depends on the method and setting. Some entries that bind do so weakly or less than the wild type. Tags and fused reporters may be left off the sequences shown.

By UniProt entry, the sequences of proteins in these tests, tags left out. Residues count along the entry.
UniProt Q15788, residues 583-783: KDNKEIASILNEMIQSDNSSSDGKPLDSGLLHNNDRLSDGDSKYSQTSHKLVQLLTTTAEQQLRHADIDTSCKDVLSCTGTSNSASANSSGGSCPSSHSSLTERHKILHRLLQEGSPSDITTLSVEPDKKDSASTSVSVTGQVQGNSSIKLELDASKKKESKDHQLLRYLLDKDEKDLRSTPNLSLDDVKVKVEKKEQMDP

T1: GAL4-DBD/PXR(132-188) (human) (UniProt O75469)
T1 sequence: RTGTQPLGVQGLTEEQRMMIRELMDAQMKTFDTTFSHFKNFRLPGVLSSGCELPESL

B1: VP16-AD/PXR(189-434) (domain or fragment, UniProt O75469 189-434)
chain: QAPSREEAAKWSQVRKDLCSLKVSLQLRGEDGSVWNYKPPADSGGKEIFSLLPHMADMSTYMFKGIISFAKVISYFRDLPIEDQISLLKGAAFELCQLRFNTVFNAETGTWECGRLSYCLEDTAGGFQQLLLEPMLKFHYMLKKLQLHEEEYVLMQAISLFSPDRPGVLQHRVVDQLQEQFAITLKSYIECNRPQPAHRFLFLKIMAMLTELRSINAQHTQRLLRIQDIHPFATPLMQELFGITGS
B2: VP16-AD/PXR(108-434) (domain or fragment, UniProt O75469 108-434)
chain: KKEMIMSDEAVEERRALIKRKKSERTGTQPLGVQGLTEEQRMMIRELMDAQMKTFDTTFSHFKNFRLPGVLSSGCELPESLQAPSREEAAKWSQVRKDLCSLKVSLQLRGEDGSVWNYKPPADSGGKEIFSLLPHMADMSTYMFKGIISFAKVISYFRDLPIEDQISLLKGAAFELCQLRFNTVFNAETGTWECGRLSYCLEDTAGGFQQLLLEPMLKFHYMLKKLQLHEEEYVLMQAISLFSPDRPGVLQHRVVDQLQEQFAITLKSYIECNRPQPAHRFLFLKIMAMLTELRSINAQHTQRLLRIQDIHPFATPLMQELFGITGS

Tests used:
[1] = molecular target: T1, GAL4-DBD/PXR(132-188) (human); test: two-hybrid; human PXR LBD assembly assay in HepG2 cells: GAL4-DBD/PXR(132-188) and VP16-AD/PXR(189-434) with pGL4-G5 reporter; cells treated with MI-883 for 24 h
[2] = molecular target: GAL4-DBD/NCOA1-RID (residues 583–783) (UniProt Q15788); test: two-hybrid; mammalian two-hybrid PXR-coactivator recruitment assay in HepG2 cells: GAL4-DBD/coactivator-RID and VP16-AD/PXR(108-434), pGL4-G5 reporter; cells treated with 10 µM rifampicin for 24 h
[3] = molecular target: GAL4-DBD/NCOA1-RID (residues 583–783) (UniProt Q15788); test: condition: only with MI-883 added to 10 µM rifampicin; two-hybrid; mammalian two-hybrid PXR-coactivator recruitment assay in HepG2 cells: GAL4-DBD/coactivator-RID and VP16-AD/PXR(108-434), pGL4-G5 reporter; cells treated with 10 µM rifampicin and MI-883 for 24 h
[4] = molecular target: GAL4-DBD/NCOA1-RID (residues 583–783) (UniProt Q15788); test: condition: only cells treated with MI-883 without rifampicin; two-hybrid; mammalian two-hybrid PXR-coactivator recruitment assay in HepG2 cells: GAL4-DBD/coactivator-RID and VP16-AD/PXR(108-434), pGL4-G5 reporter; cells treated with MI-883 alone (indicated concentrations) for 24 h

| Binder | binding [1] | binding [2] | binding [3] | binding [4] |
| --- | --- | --- | --- | --- |
| B1 | binds | – | – | – |
| B2 | – | binds | no binding | no binding |
